Record: PubChem BioAssay AID1159584 (Peter MacCallum Cancer Centre, 2016)

Screen: 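Knock-downs that harm CDH1-null cells more than parental MCF10A cells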 (primary screen)
System: human MCF10A breast epithelial cells, parental and CDH1-null
Knock-down reagent: siRNA against human genes
Measurement: 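Cell viability by CellTiter-Glo ATP luminescence, each line scaled to the mean of mock wells across plates, then CDH1-null over parental ratio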
Scale: CDH1-null / parental viability ratio: higher = CDH1-null cells survive relatively better than parental; CDH1-null viability vs mock: higher = more viable CDH1-null cells; parental viability vs mock: higher = more viable parental cells
In all, the deposit lists about 18,000 reagents; below is a part drawn at random. Reagent sequences are not shown. Not given: the amount of reagent, the time to read-out.

| CDH1-null / parental viability ratio | CDH1-null viability vs mock (fraction of mock) | parental viability vs mock (fraction of mock) | Gene |
| --- | --- | --- | --- |
| 0.89 | 0.87 | 0.98 | SLC25A18 (GeneID 83733) |
| 0.86 | 0.74 | 0.86 | MSH5 (GeneID 4439) |
| 1 | 0.8 | 0.8 | CPNE7 (GeneID 27132) |
| 1.05 | 0.92 | 0.88 | GMEB2 (GeneID 26205) |
| 0.82 | 0.67 | 0.82 | CCDC24 (GeneID 149473) |
| 1 | 0.89 | 0.89 | CDT1 (GeneID 81620) |
| 0.77 | 0.63 | 0.82 | SLC22A7 (GeneID 10864) |
| 1.07 | 0.86 | 0.8 | FAM174C (GeneID 55009) |
| 1.2 | 1.04 | 0.87 | RAB24 (GeneID 53917) |
| 1.14 | 0.64 | 0.56 | TMEM255B (GeneID 348013) |

Records listed so far whose gene name starts with S or s (2):
| CDH1-null / parental viability ratio | CDH1-null viability vs mock (fraction of mock) | parental viability vs mock (fraction of mock) | Gene |
| --- | --- | --- | --- |
| 0.89 | 0.87 | 0.98 | SLC25A18 (GeneID 83733) |
| 0.77 | 0.63 | 0.82 | SLC22A7 (GeneID 10864) |

Further records follow.
| CDH1-null / parental viability ratio | CDH1-null viability vs mock (fraction of mock) | parental viability vs mock (fraction of mock) | Gene |
| --- | --- | --- | --- |
| 1.53 | 0.92 | 0.6 | KISS1R (GeneID 84634) |
| 0.86 | 0.62 | 0.72 | TMSB10 (GeneID 9168) |
| 1.06 | 0.99 | 0.93 | MRM3 (GeneID 55178) |
| 0.72 | 0.7 | 0.97 | SLC19A2 (GeneID 10560) |
| 1.43 | 0.67 | 0.47 | SYT16 (GeneID 83851) |
| 0.91 | 0.6 | 0.66 | SLC13A4 (GeneID 26266) |
| 1.16 | 0.74 | 0.64 | COX6B1 (GeneID 1340) |
| 1.01 | 0.91 | 0.9 | RTN2 (GeneID 6253) |
| 1.03 | 0.64 | 0.62 | OR13C9 (GeneID 286362) |
| 1.02 | 0.92 | 0.9 | SMPDL3A (GeneID 10924) |
| 1.2 | 1.08 | 0.9 | MATN1 (GeneID 4146) |
| 0.86 | 0.76 | 0.88 | TIMP3 (GeneID 7078) |
| 0.97 | 0.76 | 0.78 | GJA4 (GeneID 2701) |
| 0.84 | 0.64 | 0.76 | BRD10 (GeneID 158358) |
| 0.99 | 0.94 | 0.95 | ZNF517 (GeneID 340385) |
| 1.11 | 0.7 | 0.63 | GRHL1 (GeneID 29841) |
| 0.97 | 0.62 | 0.64 | SRP72 (GeneID 6731) |
| 0.88 | 0.56 | 0.64 | GPA33 (GeneID 10223) |
